{
  "sequences": {"note": "Protein sequences, listed by entry. Tags and fused reporters are not part of them.", "UniProt O14686": "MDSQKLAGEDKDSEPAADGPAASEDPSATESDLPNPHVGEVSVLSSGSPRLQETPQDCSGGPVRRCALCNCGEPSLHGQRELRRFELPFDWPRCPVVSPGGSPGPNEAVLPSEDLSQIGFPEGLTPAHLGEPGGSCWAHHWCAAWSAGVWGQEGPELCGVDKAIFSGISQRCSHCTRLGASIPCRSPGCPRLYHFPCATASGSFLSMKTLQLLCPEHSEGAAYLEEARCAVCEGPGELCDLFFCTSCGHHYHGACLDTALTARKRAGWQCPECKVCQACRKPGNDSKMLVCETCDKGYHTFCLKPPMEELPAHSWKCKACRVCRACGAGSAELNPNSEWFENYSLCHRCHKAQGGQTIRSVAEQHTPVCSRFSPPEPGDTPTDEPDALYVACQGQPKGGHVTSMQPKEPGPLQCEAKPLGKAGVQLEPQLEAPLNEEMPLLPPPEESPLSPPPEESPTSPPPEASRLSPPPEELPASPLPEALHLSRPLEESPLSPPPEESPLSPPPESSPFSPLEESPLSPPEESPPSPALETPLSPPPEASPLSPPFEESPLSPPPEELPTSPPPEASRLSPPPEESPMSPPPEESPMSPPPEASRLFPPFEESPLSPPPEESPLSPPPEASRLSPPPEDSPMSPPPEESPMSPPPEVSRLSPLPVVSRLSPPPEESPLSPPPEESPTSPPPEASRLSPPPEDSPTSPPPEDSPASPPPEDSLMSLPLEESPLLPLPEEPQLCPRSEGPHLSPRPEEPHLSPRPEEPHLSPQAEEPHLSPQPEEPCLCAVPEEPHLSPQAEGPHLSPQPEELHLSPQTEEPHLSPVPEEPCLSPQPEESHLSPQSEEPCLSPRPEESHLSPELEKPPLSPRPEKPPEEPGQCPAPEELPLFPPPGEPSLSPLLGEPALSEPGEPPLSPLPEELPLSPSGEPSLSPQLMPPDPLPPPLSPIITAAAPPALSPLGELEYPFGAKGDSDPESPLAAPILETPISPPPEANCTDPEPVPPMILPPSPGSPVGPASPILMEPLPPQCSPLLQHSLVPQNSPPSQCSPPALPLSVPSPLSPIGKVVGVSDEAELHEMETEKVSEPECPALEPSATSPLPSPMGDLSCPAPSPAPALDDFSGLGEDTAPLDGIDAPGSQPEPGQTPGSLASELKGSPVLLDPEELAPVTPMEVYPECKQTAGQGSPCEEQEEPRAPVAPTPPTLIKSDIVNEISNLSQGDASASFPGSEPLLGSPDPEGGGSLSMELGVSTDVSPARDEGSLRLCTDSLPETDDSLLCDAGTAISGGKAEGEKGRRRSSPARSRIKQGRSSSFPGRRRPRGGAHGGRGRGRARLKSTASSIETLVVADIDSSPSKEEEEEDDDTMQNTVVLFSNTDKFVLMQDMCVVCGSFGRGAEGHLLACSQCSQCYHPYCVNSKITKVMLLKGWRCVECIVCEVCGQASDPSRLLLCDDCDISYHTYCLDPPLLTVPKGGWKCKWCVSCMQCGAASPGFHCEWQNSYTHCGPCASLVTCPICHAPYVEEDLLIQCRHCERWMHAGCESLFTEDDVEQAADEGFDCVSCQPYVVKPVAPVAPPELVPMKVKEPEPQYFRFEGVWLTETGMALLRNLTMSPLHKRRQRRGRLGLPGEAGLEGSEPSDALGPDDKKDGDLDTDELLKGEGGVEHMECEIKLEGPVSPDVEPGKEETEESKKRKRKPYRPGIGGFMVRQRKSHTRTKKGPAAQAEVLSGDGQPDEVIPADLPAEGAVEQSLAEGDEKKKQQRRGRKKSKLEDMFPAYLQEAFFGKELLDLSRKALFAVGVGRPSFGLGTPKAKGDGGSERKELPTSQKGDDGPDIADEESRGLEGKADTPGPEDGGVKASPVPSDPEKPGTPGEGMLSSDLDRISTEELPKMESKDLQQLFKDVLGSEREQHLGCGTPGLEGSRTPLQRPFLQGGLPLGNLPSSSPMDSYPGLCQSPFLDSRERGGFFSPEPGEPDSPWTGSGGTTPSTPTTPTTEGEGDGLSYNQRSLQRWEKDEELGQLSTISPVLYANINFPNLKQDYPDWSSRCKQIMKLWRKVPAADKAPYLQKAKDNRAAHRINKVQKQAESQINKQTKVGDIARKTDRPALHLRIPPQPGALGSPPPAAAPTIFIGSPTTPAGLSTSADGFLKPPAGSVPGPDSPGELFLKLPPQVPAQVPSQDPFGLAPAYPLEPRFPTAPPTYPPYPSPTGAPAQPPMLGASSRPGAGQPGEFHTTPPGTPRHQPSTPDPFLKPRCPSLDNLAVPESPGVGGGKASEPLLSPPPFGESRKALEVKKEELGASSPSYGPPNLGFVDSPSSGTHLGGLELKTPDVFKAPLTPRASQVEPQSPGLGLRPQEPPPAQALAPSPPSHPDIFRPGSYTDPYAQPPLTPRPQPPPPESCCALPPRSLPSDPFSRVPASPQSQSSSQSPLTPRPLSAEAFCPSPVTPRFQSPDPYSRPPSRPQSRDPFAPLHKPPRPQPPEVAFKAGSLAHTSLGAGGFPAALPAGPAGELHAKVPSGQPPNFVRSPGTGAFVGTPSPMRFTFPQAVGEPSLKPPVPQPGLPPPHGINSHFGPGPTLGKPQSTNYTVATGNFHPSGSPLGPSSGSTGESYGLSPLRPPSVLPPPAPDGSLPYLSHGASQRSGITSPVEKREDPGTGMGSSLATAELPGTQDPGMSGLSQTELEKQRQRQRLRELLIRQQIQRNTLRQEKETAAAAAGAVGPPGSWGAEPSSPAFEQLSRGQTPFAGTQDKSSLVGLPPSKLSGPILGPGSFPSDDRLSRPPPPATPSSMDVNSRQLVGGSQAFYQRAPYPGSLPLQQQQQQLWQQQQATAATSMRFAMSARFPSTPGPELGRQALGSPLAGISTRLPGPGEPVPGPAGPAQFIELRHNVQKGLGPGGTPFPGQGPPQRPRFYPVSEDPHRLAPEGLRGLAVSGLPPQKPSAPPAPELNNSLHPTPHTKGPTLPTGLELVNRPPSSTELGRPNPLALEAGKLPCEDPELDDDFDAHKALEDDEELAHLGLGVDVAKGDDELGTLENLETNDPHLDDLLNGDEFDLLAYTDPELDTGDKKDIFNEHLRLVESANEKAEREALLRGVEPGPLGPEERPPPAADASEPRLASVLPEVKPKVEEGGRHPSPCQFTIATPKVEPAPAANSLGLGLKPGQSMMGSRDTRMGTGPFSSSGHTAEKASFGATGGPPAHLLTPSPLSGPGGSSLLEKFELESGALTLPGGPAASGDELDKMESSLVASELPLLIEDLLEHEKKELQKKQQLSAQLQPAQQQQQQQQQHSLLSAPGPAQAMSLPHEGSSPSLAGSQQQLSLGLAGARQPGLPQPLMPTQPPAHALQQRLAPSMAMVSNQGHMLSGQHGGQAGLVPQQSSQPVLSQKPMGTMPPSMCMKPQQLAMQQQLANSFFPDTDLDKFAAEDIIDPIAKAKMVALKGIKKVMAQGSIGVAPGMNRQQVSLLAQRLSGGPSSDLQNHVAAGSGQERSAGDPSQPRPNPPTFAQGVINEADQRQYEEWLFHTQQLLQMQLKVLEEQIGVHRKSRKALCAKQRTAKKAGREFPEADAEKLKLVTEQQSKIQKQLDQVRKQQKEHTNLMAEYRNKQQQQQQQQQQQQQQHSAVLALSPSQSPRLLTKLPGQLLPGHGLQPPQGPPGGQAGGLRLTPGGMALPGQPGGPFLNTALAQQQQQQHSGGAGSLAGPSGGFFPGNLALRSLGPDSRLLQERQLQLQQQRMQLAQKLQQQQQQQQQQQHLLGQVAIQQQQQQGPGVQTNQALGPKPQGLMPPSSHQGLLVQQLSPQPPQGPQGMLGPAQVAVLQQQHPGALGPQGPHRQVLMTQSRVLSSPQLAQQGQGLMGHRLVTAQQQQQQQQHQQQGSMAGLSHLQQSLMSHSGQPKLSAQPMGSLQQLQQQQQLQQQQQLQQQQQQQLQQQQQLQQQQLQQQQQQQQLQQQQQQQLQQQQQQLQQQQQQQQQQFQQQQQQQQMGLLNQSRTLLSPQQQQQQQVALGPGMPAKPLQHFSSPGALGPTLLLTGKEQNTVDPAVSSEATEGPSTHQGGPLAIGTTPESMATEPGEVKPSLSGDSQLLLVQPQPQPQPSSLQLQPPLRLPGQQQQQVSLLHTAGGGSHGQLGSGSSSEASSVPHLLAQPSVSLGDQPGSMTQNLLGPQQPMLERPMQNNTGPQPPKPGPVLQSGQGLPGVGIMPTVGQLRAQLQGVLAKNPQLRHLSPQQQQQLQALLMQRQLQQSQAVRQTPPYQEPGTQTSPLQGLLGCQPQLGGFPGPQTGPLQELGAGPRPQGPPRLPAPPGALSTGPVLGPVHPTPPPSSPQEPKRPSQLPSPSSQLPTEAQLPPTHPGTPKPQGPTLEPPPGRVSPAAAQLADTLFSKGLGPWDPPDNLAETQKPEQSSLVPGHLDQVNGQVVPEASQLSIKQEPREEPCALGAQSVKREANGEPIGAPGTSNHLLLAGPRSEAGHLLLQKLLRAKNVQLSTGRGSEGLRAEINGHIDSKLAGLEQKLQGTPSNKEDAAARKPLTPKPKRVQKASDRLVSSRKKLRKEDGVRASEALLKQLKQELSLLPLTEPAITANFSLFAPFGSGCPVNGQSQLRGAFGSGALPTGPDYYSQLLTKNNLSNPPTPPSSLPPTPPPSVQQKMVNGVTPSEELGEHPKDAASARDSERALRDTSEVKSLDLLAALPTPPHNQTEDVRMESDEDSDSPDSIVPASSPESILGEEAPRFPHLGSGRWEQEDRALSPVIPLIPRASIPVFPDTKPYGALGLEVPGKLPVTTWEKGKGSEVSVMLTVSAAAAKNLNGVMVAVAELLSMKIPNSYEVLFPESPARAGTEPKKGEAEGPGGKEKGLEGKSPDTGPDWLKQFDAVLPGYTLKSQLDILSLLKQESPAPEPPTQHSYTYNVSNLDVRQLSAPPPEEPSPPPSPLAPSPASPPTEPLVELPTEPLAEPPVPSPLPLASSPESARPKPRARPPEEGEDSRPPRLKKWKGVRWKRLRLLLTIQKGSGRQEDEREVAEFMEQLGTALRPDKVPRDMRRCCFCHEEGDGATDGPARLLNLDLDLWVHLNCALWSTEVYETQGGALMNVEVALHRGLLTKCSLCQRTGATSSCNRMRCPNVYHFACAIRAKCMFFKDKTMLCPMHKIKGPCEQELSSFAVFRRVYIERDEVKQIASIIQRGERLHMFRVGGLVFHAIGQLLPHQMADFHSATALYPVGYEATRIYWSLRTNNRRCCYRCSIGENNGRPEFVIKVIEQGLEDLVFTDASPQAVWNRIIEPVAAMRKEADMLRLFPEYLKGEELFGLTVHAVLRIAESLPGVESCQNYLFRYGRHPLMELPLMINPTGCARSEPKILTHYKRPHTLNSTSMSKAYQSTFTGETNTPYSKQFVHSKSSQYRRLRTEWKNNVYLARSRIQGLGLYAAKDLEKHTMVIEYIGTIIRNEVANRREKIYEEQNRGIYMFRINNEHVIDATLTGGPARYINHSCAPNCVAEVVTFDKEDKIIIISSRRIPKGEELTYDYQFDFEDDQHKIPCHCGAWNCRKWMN"},
  "source": "paper PMC10089214",
  "biological_target": "KMT2D (endogenous) (human (endogenous in SUDHL4, LY7 and tonsil B cells)) (UniProt O14686)",
  "assay": "co-IP; endogenous proteins in nuclear extracts of SUDHL4 and LY7 DLBCL cells; IP with anti-KMT2D antibody (or control IgG) and reverse IP with anti-CREBBP antibody, overnight at 4 °C; immunoblot",
  "note": "Results are given in words; binding and its absence hold for the method and conditions named. In cells and extracts the contact can be indirect. Some results given as binding are weak or reduced against the parent protein; the word gives no strength.",
  "data": [
    {"substance": "CREBBP (endogenous) (from UniProt Q92793 1-2442) (enzyme)", "values": [
      {"measurement": "binding", "value": "binds"}
    ]}
  ]
}
